Among the data in publication PMC10767235 are binding values, retold here.

Chains of the proteins cited; added tags and fusions are not shown.
UniProt P35222: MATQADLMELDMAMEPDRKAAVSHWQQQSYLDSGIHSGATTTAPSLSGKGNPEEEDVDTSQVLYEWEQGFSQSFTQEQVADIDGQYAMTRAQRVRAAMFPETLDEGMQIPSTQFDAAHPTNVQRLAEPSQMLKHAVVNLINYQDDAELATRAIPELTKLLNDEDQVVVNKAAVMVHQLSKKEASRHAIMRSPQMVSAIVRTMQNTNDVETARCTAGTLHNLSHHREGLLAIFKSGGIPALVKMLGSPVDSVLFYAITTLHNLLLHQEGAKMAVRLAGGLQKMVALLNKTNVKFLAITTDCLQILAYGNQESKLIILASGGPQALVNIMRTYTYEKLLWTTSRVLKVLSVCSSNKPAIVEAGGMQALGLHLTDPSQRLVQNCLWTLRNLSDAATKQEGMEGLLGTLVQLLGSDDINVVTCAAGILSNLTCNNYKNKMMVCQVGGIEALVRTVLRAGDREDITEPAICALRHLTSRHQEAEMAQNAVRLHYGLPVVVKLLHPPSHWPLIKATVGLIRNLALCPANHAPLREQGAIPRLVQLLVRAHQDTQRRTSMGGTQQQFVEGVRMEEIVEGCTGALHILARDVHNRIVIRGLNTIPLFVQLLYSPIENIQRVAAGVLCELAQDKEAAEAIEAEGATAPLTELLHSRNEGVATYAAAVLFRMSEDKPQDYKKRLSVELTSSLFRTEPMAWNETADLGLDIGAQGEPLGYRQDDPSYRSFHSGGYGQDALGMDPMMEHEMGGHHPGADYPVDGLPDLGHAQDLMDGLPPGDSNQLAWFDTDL

This assay addresses T1, peroxiredoxin 2 (human (endogenous in HepG2)) (UniProt P32119).
T1 sequence: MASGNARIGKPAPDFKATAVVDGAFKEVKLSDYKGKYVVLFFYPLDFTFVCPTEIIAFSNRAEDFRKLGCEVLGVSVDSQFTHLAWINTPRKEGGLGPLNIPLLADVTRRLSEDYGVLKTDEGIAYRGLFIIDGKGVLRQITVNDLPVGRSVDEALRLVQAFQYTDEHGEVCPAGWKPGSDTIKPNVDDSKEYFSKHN
The experiment in a line: co-IP; HepG2 cells lysed in RIPA buffer; supernatant incubated overnight at 4°C with 1 μg primary antibody and 20 μl protein A/G beads; Western blot; which antibody precipitated is not stated. In general terms: In western blotting, separated proteins are transferred to a membrane and probed.

Results are given in words; binding and its absence hold for the method and conditions named. Binding seen in cells or lysates may run through a third protein. Some results given as binding are weak or reduced against the parent protein; the word gives no strength.

As for β-catenin (from UniProt P35222 1-781), the binding result is “binds”.
